Measured values published in PMC12643531.
These are yes or no findings as the source states them, for the method shown. Binding seen in cells or lysates may run through a third protein. These calls come from enrichment with a bait or labelling near it, and not all partners need be listed. Tags and fused reporters may be left off the sequences shown.

T1: LEUNIG_HOMOLOG (LUH)-GFP (Arabidopsis thaliana) (UniProt O48847)
T1 sequence: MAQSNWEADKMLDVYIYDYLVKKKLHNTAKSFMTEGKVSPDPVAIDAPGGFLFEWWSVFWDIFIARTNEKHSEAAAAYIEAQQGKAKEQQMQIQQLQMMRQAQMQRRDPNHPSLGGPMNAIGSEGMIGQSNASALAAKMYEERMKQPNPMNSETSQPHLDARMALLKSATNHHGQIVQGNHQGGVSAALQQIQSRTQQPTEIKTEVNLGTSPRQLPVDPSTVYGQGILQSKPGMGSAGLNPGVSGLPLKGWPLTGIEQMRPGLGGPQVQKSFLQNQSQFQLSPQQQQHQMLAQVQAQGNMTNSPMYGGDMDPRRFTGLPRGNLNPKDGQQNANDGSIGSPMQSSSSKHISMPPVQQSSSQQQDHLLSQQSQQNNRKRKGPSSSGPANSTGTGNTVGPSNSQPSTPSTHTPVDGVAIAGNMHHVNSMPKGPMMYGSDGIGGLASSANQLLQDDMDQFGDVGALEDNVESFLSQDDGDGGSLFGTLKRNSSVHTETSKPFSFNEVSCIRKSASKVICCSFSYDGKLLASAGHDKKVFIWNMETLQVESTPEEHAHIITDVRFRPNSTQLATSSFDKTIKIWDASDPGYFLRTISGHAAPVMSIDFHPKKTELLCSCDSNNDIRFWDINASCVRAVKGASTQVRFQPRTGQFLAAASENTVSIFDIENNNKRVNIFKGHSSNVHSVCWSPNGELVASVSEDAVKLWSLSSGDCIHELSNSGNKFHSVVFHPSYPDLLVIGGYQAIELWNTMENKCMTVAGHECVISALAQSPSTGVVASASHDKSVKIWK


target: T1, LEUNIG_HOMOLOG (LUH)-GFP (Arabidopsis thaliana); test: affinity purification with mass spectrometry; LUH-GFP precipitated with anti-GFP micro beads (4°C, 1 h) from nuclear protein extracts of FIS inflorescences at 0, 2, 4 and 8 DAI; LC-MS/MS; enrichment against input, P < 0.05 and FC > 4; three biological replicates

Binder	binding
SQUAMOSA Promoter-Binding Protein-Like 9 (SPL9) (protein, UniProt Q700W2 1-375) MEMGSNSGPGHGPGQAESGGSSTESSSFSGGLMFGQKIYFEDGGGGSGSSSSGGRSNRRVRGGGSGQSGQIPRCQVEGCGMDLTNAKGYYSRHRVCGVHSKTPKVTVAGIEQRFCQQCSRFHQLPEFDLEKRSCRRRLAGHNERRRKPQPASLSVLASRYGRIAPSLYENGDAGMNGSFLGNQEIGWPSSRTLDTRVMRRPVSSPSWQINPMNVFSQGSVGGGGTSFSSPEIMDTKLESYKGIGDSNCALSLLSNPHQPHDNNNNNNNNNNNNNNTWRASSGFGPMTVTMAQPPPAPSQHQYLNPPWVFKDNDNDMSPVLNLGRYTEPDNCQISSGTAMGEFELSDHHHQSRRQYMEDENTRAYDSSSHHTNWSL	binds
SPL8 (protein, UniProt Q8GXL3 1-333) MLDYEWDNPSSIVLSGDERNPDSDPTRSSFSFFDPISHYNNDHRHITISPPLLSSFSNQQQQHHLTLYGQTNSNNQFLHHHHHHHSLYGSTTTTTPYGASDPIYHPHSSAPPASLFSYDQTGPGSGSGSSYNFLIPKTEVDFTSNRIGLNLGGRTYFSAADDDFVSRLYRRSRPGESGMANSLSTPRCQAEGCNADLSHAKHYHRRHKVCEFHSKASTVVAAGLSQRFCQQCSRFHLLSEFDNGKRSCRKRLADHNRRRRKCHQSASATQDTGTGKTTPKSPNDSGVKASSSPSSNAPPTISLECFRQRQFQTTASSSTSASSSSNSMFFSSG	binds
SPL15 (protein, UniProt Q9M2Q6 1-354) MELLMCSGQAESGGSSSTESSSLSGGLRFGQKIYFEDGSGSRSKNRVNTVRKSSTTARCQVEGCRMDLSNVKAYYSRHKVCCIHSKSSKVIVSGLHQRFCQQCSRFHQLSEFDLEKRSCRRRLACHNERRRKPQPTTALFTSHYSRIAPSLYGNPNAAMIKSVLGDPTAWSTARSVMQRPGPWQINPVRETHPHMNVLSHGSSSFTTCPEMINNNSTDSSCALSLLSNSYPIHQQQLQTPTNTWRPSSGFDSMISFSDKVTMAQPPPISTHQPPISTHQQYLSQTWEVIAGEKSNSHYMSPVSQISEPADFQISNGTTMGGFELYLHQQVLKQYMEPENTRAYDSSPQHFNWSL	binds
SHOOT … (STM) (protein, UniProt Q38874 1-382) MESGSNSTSCPMAFAGDNSDGPMCPMMMMMPPIMTSHQHHGHDHQHQQQEHDGYAYQSHHQQSSSLFLQSLAPPQGTKNKVASSSSPSSCAPAYSLMEIHHNEIVAGGINPCSSSSSSASVKAKIMAHPHYHRLLAAYVNCQKVGAPPEVVARLEEACSSAAAAAASMGPTGCLGEDPGLDQFMEAYCEMLVKYEQELSKPFKEAMVFLQRVECQFKSLSLSSPSSFSGYGETAIDRNNNGSSEEEVDMNNEFVDPQAEDRELKGQLLRKYSGYLGSLKQEFMKKRKKGKLPKEARQQLLDWWSRHYKWPYPSEQQKLALAESTGLDQKQINNWFINQRKRHWKPSEDMQFVVMDATHPHHYFMDNVLGNPFPMDHISSTML	binds
TCP4 (protein, UniProt Q8LPR5 1-420) MSDDQFHHPPPPSSMRHRSTSDAADGGCGEIVEVQGGHIVRSTGRKDRHSKVCTAKGPRDRRVRLSAHTAIQFYDVQDRLGFDRPSKAVDWLIKKAKTSIDELAELPPWNPADAIRLAAANAKPRRTTAKTQISPSPPPPQQQQQQQQLQFGVGFNGGGAEHPSNNESSFLPPSMDSDSIADTIKSFFPVIGSSTEAPSNHNLMHNYHHQHPPDLLSRTNSQNQDLRLSLQSFPDGPPSLLHHQHHHHTSASASEPTLFYGQSNPLGFDTSSWEQQSSEFGRIQRLVAWNSGGGGGATDTGNGGGFLFAPPTPSTTSFQPVLGQSQQLYSQRGPLQSSYSPMIRAWFDPHHHHQSISTDDLNHHHHLPPPVHQSAIPGIGFASGEFSSGFRIPARFQGQEEEQHDGLTHKPSSASSISRH	binds
TCP5 (protein, UniProt Q9FME3 1-360) MRSGECDEEEIQAKQERDQNQNHQVNLNHMLQQQQPSSVSSSRQWTSAFRNPRIVRVSRTFGGKDRHSKVCTVRGLRDRRIRLSVPTAIQLYDLQDRLGLSQPSKVIDWLLEAAKDDVDKLPPLQFPHGFNQMYPNLIFGNSGFGESPSSTTSTTFPGTNLGFLENWDLGGSSRTRARLTDTTTTQRESFDLDKGKWIKNDENSNQDHQGFNTNHQQQFPLTNPYNNTSAYYNLGHLQQSLDQSGNNVTVAISNVAANNNNNLNLHPPSSSAGDGSQLFFGPTPPAMSSLFPTYPSFLGASHHHHVVDGAGHLQLFSSNSNTASQQHMMPGNTSLIRPFHHLMSSNHDTDHHSSDNESDS	binds
YIN YANG 1 (YY1) (protein, UniProt Q2V3L3 1-387) MDHQNYQYQNPFERRPILKSKAPAVKWIKEWVPQDIVATGGKCHLHKWVTEDTFSRLKEKEKEPDVPEPEPEPTTEILFLCSYDGCGKTFFDVSALRKHSHIHGERQYVCDQEGCGKKFLDSSKLKRHYLIHTGERNYICTYEGCGKAFSLDFNLRSHMKTHSQENYHICPYSGCVKRYAHEYKLKNHVAAYHEKNGGGETPKYTPPAEKVLRTVKTPATVCGPSSDRPYACPYEGCEKAYIHEYKLKLHLKREHPGHLQEENADTPTLNKHNGNDRNEIDDGSDQDVYRKHASNGKGQTHKQQSRAKPNMRTPPAKVGKKGSTSSPAKARIAKKPWQAKETFEEVEREEEEDSEETEEDRDNVEDGWRFGENNEDDDDDEETEYED	binds
SEUSS-LIKE2 (SLK2) (protein, UniProt Q94BP0 1-816) MASSTSGIFFQGDDESQSFINSHLTSSYGNSSNSAPGCGGPTGGYHNLSMVSGDMHNPVMMSVSTPGPSAGASSLVTDANSGLSGGGPHLQRSASINNESYMRLPASPMSFSSNNISISGSSVVDGSTVVQRHDPSVQLGGSSATSLPTSQTNQIPLSMARRASESFFQDPNNLTQARKKPRLDSKQDDALQQQILRQWLQRQDILQQQQQQQQQGQNPQFQILLQQQKLRQQQQYLQSLPPLQRVQLQQQQQVQQQQQLQQQHQQQQQQLQQQGMQMQLTGGPRPYENSVCARRLMQYLYHQRQRPSESSIVYWRKFVTEYFSPRAKKRWCLSHYDNVGHSALGVSPQAATDEWQCDLCGSKSGRGFEATFDVLPRLNEIKFASGVLDELLYLGVPSERRYGSGIMVLEYGKAVQESVYEHIRVVREGHLRIIFSQELKILSWEFCTRRHEELLPRRLVAPQVNQLLQVAEKCQSTIDQSGSDGIHQQDLQANSNMVMAAGRQLAKSLESHSLNDLGFSKRYVRCLQISEVVSSMKDMIDFCRDQKVGPIEALKSYPYRMKAGKPQMQEMEQLAAARGLPPDRNSLNKLMALRNSGINIPMNNMSGQGSLPGSAQAAAFALTNYQSMLMKQNHLNSDLNNTTIQQEPSRNRSASPSYQGTSPLLPGFVHSPSISGVSSHLSPQRQMPSSSYNGSTQQYHQQPPSCSSGNQTLEQQMIHQIWQQMANSNGGSGQQQQSLSGQNMMNCNTNMGRNRTDYVPAAAETPSTSNRFRGIKGLDQSQNLEGIISNTSLNFGNNGVFSNEVDESMGGYSWKS	binds
B… (BLR) (protein, UniProt Q9LZM8 1-575) MADAYEPYHVLQQSRRDKLRIPSLDSHFHFHPPPPPSSGGGGGVFPLADSDFLAAGGFHSNNNNNHISNPSYSNFMGFLGGPSSSSSTAVAVAGDHSFNAGLSSGDVLVFKPEPLSLSLSSHPRLAYDLVVPGVVNSGFCRSAGEANAAAVTIASRSSGPLGPFTGYASILKGSRFLKPAQMLLDEFCNVGRGIYTDKVIDDDDSSLLFDPTVENLCGVSDGGGGDNGKKKSKLISMLDEVYKRYKQYYEQLQAVMGSFECVAGLGHAAPYANLALKALSKHFKCLKNAITDQLQFSHNNKIQQQQQCGHPMNSENKTDSLRFGGSDSSRGLCSAGQRHGFPDHHAPVWRPHRGLPERAVTVLRAWLFDHFLHPYPTDTDKLMLAKQTGLSRNQVSNWFINARVRVWKPMVEEIHMLETRQSQRSSSSSWRDERTSTTVFPDNSNNNPSSSSAQQRPNNSSPPRRARNDDVHGTNNNNSYVNSGSGGGSAVGFSYGIGSSNVPVMNSSTNGGVSLTLGLHHQIGLPEPFPMTTAQRFGLDGGSGDGGGGYEGQNRQFGRDFIGGSNHQFLHDFVG	binds
… (PAN) (protein, UniProt Q9SX27 1-452) MQSSFKTVPFTPDFYSQSSYFFRGDSCLEEFHQPVNGFHHEEAIDLSPNVTIASANLHYTTFDTVMDCGGGGGGGLRERLEGGEEECLDTGQLVYQKGTRLVGGGVGEVNSSWCDSVSAMADNSQHTDTSTDIDTDDKTQLNGGHQGMLLATNCSDQSNVKSSDQRTLRRLAQNREAARKSRLRKKAYVQQLENSRIRLAQLEEELKRARQQGSLVERGVSADHTHLAAGNGVFSFELEYTRWKEEHQRMINDLRSGVNSQLGDNDLRVLVDAVMSHYDEIFRLKGIGTKVDVFHMLSGMWKTPAERFFMWLGGFRSSELLKILGNHVDPLTDQQLIGICNLQQSSQQAEDALSQGMEALQQSLLETLSSASMGPNSSANVADYMGHMAMAMGKLGTLENFLRQADLLRQQTLQQLHRILTTRQAARAFLVIHDYISRLRALSSLWLARPRD	binds
AINTEGUMENTA (ANT) (protein, UniProt Q38914 1-555) MKSFCDNDDNNHSNTTNLLGFSLSSNMMKMGGRGGREAIYSSSTSSAATSSSSVPPQLVVGDNTSNFGVCYGSNPNGGIYSHMSVMPLRSDGSLCLMEALNRSSHSNHHQDSSPKVEDFFGTHHNNTSHKEAMDLSLDSLFYNTTHEPNTTTNFQEFFSFPQTRNHEEETRNYGNDPSLTHGGSFNVGVYGEFQQSLSLSMSPGSQSSCITGSHHHQQNQNQNHQSQNHQQISEALVETSVGFETTTMAAAKKKRGQEDVVVVGQKQIVHRKSIDTFGQRTSQYRGVTRHRWTGRYEAHLWDNSFKKEGHSRKGRQVYLGGYDMEEKAARAYDLAALKYWGPSTHTNFSAENYQKEIEDMKNMTRQEYVAHLRRKSSGFSRGASIYRGVTRHHQHGRWQARIGRVAGNKDLYLGTFGTQEEAAEAYDVAAIKFRGTNAVTNFDITRYDVDRIMSSNTLLSGELARRNNNSIVVRNTEDQTALNAVVEGGSNKEVSTPERLLSFPAIFALPQVNQKMFGSNMGGNMSPWTSNPNAELKTVALTLPQMPVFAAWADS	binds
